Where a name gives a salt, the structure may show the parent alone. This is one part of the list. Single values are uncertain here, since repeats match poorly.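 The human kidney-derived cells carry a stably integrated construct of eight TEAD-binding elements driving luciferase, read by luminescence in a drug-repurposing library screen. A compound counts as a hit when its signal is more than five robust Z scores above the plate mean.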
Test system: HEK293A TEAD-LUC reporter
Experiment: TEAD-luciferase reporter activity (YAP activation), robust Z score vs plate; higher = stronger YAP/TEAD activation
Settings: 24 h

SMILES: COC(=O)c1c(C)cc(OC(=O)c2c(C)cc(O)c(C=O)c2O)c(C)c1O
- TEAD-luciferase reporter activity (compound concentration: 200 nM): inactive: -1.1
- TEAD-luciferase reporter activity (compound concentration: 2 uM): inactive: -0.367
- TEAD-luciferase reporter activity (compound concentration: 10 uM): inactive: 1.97

SMILES: O=C1CN(S(=O)(=O)c2ccc3cc(Cl)ccc3c2)CC2(CO)OC3(CCNCC3)CN12 (stereo unspecified)
- TEAD-luciferase reporter activity (compound concentration: 200 nM): inactive: -1.26
- TEAD-luciferase reporter activity (compound concentration: 2 uM): inactive: -1.7
- TEAD-luciferase reporter activity (compound concentration: 10 uM): inactive: 2.88

SMILES: C#C[C@]1(O)CC[C@H]2[C@@H]3CCC4=CC(=O)CC[C@@H]4[C@H]3C(=C)C[C@@]21CC [Etonogestrel]
- TEAD-luciferase reporter activity (compound concentration: 200 nM): inactive: -1.47
- TEAD-luciferase reporter activity (compound concentration: 2 uM): inactive: -0.771
- TEAD-luciferase reporter activity (compound concentration: 10 uM): inactive: -1.41

SMILES: CCCCc1nc(-c2ccc(OCCCN(CC)CC)cc2)cn1-c1ccc(Oc2ccc(Cl)cc2)cc1 [Azeliragon]
- TEAD-luciferase reporter activity (compound concentration: 200 nM): inactive: 0.479
- TEAD-luciferase reporter activity (compound concentration: 2 uM): inactive: 0.713
- TEAD-luciferase reporter activity (compound concentration: 10 uM): inactive: 3.96

SMILES: CCOC(=O)c1cc2cc3ccoc3cc2oc1=O [3-Carbethoxypsoralen]
- TEAD-luciferase reporter activity (compound concentration: 200 nM): inactive: -0.458
- TEAD-luciferase reporter activity (compound concentration: 2 uM): inactive: 1.51
- TEAD-luciferase reporter activity (compound concentration: 10 uM): inactive: -0.312

SMILES: COc1ccc(CNC(=O)c2cc(-c3cncc(C)c3)ncc2-c2nccs2)nc1OC
- TEAD-luciferase reporter activity (compound concentration: 200 nM): inactive: -1.26
- TEAD-luciferase reporter activity (compound concentration: 2 uM): inactive: -0.325
- TEAD-luciferase reporter activity (compound concentration: 10 uM): inactive: 0.125

SMILES: O=C(Cn1ccnc1)c1ccc2ccccc2c1 [nafimidone]
- TEAD-luciferase reporter activity (compound concentration: 200 nM): inactive: 2.99
- TEAD-luciferase reporter activity (compound concentration: 2 uM): inactive: -1.49
- TEAD-luciferase reporter activity (compound concentration: 10 uM): inactive: -1.48

SMILES: O=C(O)/C=C\c1ccccc1 [Cinnamic acid]
- TEAD-luciferase reporter activity (compound concentration: 200 nM): inactive: -0.191
- TEAD-luciferase reporter activity (compound concentration: 2 uM): inactive: -0.742
- TEAD-luciferase reporter activity (compound concentration: 10 uM): inactive: 3.22

SMILES: O=C1N(CCN2CCC(c3noc4cc(F)ccc34)CC2)CCN1c1ccccc1
- TEAD-luciferase reporter activity (compound concentration: 200 nM): inactive: -0.894
- TEAD-luciferase reporter activity (compound concentration: 2 uM): inactive: -1.67
- TEAD-luciferase reporter activity (compound concentration: 10 uM): inactive: -1.31

SMILES: COc1ccc(CCN(C)CCCC(C#N)(c2ccc(OC)c(OC)c2)C(C)C)cc1OC (stereo unspecified) [verapamil CDT]
- TEAD-luciferase reporter activity (compound concentration: 2 uM): inactive: 1.89

SMILES: O=C(O)Cn1c(-c2cccc(Cl)c2)nc2ccc(OCCCN3CCCCC3)cc2c1=O
- TEAD-luciferase reporter activity (compound concentration: 200 nM): inactive: 1.83
- TEAD-luciferase reporter activity (compound concentration: 2 uM): inactive: -1.04
- TEAD-luciferase reporter activity (compound concentration: 10 uM): inactive: 2.8

SMILES: O=C(/C=C/c1ccc(O)c(O)c1)O[C@@H]1C[C@](O)(C(=O)O)C[C@@H](O)[C@H]1O
- TEAD-luciferase reporter activity (compound concentration: 200 nM): inactive: -0.089
- TEAD-luciferase reporter activity (compound concentration: 2 uM): inactive: 0.42
- TEAD-luciferase reporter activity (compound concentration: 10 uM): active: 7.69

SMILES: CCc1ccccc1CN1CCCCC12Cc1ccccc1CNC2=O (stereo unspecified)
- TEAD-luciferase reporter activity (compound concentration: 200 nM): inactive: 1.22
- TEAD-luciferase reporter activity (compound concentration: 10 uM): inactive: 1.1

SMILES: OC[C@H]1O[C@@H](O)[C@H](O)[C@@H](O)[C@@H]1O
- TEAD-luciferase reporter activity (compound concentration: 200 nM): inactive: -0.958
- TEAD-luciferase reporter activity (compound concentration: 2 uM): inactive: 1.21
- TEAD-luciferase reporter activity (compound concentration: 10 uM): inactive: 0.993

SMILES: C=CCN1C(=O)C(CC(C)C)NC1=S (stereo unspecified) [Albutoin]
- TEAD-luciferase reporter activity (compound concentration: 200 nM): inactive: -0.72
- TEAD-luciferase reporter activity (compound concentration: 10 uM): inactive: -0.882

SMILES: C=CCN1C(=O)C(CC(C)C)NC1=S (stereo unspecified)
- TEAD-luciferase reporter activity (compound concentration: 2 uM): inactive: -2

SMILES: CC(O)(P(=O)(O)O)P(=O)(O)O [Etidronate]
- TEAD-luciferase reporter activity (compound concentration: 200 nM): inactive: -1.69
- TEAD-luciferase reporter activity (compound concentration: 10 uM): inactive: 0.00506

SMILES: CC(O)(P(=O)(O)O)P(=O)(O)O [Etidronic acid]
- TEAD-luciferase reporter activity (compound concentration: 2 uM): inactive: 0.225

SMILES: Cc1cc(N2CCC[C@@H](N)C2)c2c(n1)n(C)c(=O)n2Cc1ccccc1C#N [Imigliptin dihydrochloride]
- TEAD-luciferase reporter activity (compound concentration: 200 nM): inactive: -1.04
- TEAD-luciferase reporter activity (compound concentration: 2 uM): inactive: 4.18
- TEAD-luciferase reporter activity (compound concentration: 10 uM): inactive: 1.05

SMILES: CCOc1ncc(C)c2c1[C@H](c1ccc(C#N)cc1OC)C(C(N)=O)=C(C)N2 [Finere]
- TEAD-luciferase reporter activity (compound concentration: 200 nM): inactive: -0.39
- TEAD-luciferase reporter activity (compound concentration: 2 uM): inactive: 0.0704
- TEAD-luciferase reporter activity (compound concentration: 10 uM): inactive: 4.22

SMILES: CC(NCCc1ccc(OCC(=O)O)cc1)C(O)c1ccc(O)cc1 (stereo unspecified)
- TEAD-luciferase reporter activity (compound concentration: 200 nM): inactive: -1.62
- TEAD-luciferase reporter activity (compound concentration: 2 uM): inactive: 0.668
- TEAD-luciferase reporter activity (compound concentration: 10 uM): inactive: -0.559

SMILES: O=C(O)COC/C=C/CN1CCN(C(c2ccc(F)cc2)c2ccc(F)cc2)CC1
- TEAD-luciferase reporter activity (compound concentration: 200 nM): inactive: -2.2
- TEAD-luciferase reporter activity (compound concentration: 2 uM): inactive: -2
- TEAD-luciferase reporter activity (compound concentration: 10 uM): inactive: -1.3

SMILES: NC(=O)c1cnc2n1CCc1ccccc1C21CCNCC1 [Vapitadine hydrochloride]
- TEAD-luciferase reporter activity (compound concentration: 200 nM): inactive: -1.39
- TEAD-luciferase reporter activity (compound concentration: 2 uM): inactive: -0.101
- TEAD-luciferase reporter activity (compound concentration: 10 uM): inactive: 0.154

SMILES: CN[C@@H]1CCN(c2cc(NC3(C)CC3)nc(N)n2)C1
- TEAD-luciferase reporter activity (compound concentration: 200 nM): inactive: -1.42
- TEAD-luciferase reporter activity (compound concentration: 2 uM): inactive: 0.262
- TEAD-luciferase reporter activity (compound concentration: 10 uM): inactive: -1.31

SMILES: Nc1ccc(C(=O)NCC(=O)O)cc1
- TEAD-luciferase reporter activity (compound concentration: 200 nM): inactive: -0.567
- TEAD-luciferase reporter activity (compound concentration: 2 uM): inactive: 1.79
- TEAD-luciferase reporter activity (compound concentration: 10 uM): inactive: 0.383

SMILES: CCNC(=O)NS(=O)(=O)c1sc(CC(C)C)cc1-c1ccc(Cn2c(-c3ccccc3)nc(OC)c2C=O)cc1
- TEAD-luciferase reporter activity (compound concentration: 200 nM): inactive: -1.59
- TEAD-luciferase reporter activity (compound concentration: 2 uM): inactive: -0.835
- TEAD-luciferase reporter activity (compound concentration: 10 uM): inactive: 0.939

SMILES: CC(C)(c1ccc(O)cc1)c1ccc(OCc2cccc(COc3ccc(C(=N)N)cc3)c2)cc1
- TEAD-luciferase reporter activity (compound concentration: 200 nM): inactive: -1.18
- TEAD-luciferase reporter activity (compound concentration: 2 uM): inactive: -0.0107
- TEAD-luciferase reporter activity (compound concentration: 10 uM): inactive: 2.24

SMILES: O=c1[nH]c(=O)n([C@@H]2O[C@H](CO)[C@@H](O)[C@H]2O)cc1F
- TEAD-luciferase reporter activity (compound concentration: 200 nM): inactive: -0.219
- TEAD-luciferase reporter activity (compound concentration: 2 uM): inactive: -1.09
- TEAD-luciferase reporter activity (compound concentration: 10 uM): inactive: 0.887

SMILES: CSc1cc2c(cc1C(F)(F)F)N(C(=O)Nc1cccnc1)CC2
- TEAD-luciferase reporter activity (compound concentration: 200 nM): inactive: 0.228
- TEAD-luciferase reporter activity (compound concentration: 2 uM): inactive: -2.05
- TEAD-luciferase reporter activity (compound concentration: 10 uM): inactive: -1

SMILES: CC[C@]12CN3CCc4c([nH]c5ccccc45)[C@@](C(=O)OC)(c4cc5c(cc4OC)N(C)[C@H]4[C@@](O)(C(=O)OC)[C@H](OC(C)=O)[C@]6(CC)C=CCN7CC[C@]54[C@@H]76)C[C@H](C3)[C@H]1O2
- TEAD-luciferase reporter activity (compound concentration: 200 nM): inactive: -1.5
- TEAD-luciferase reporter activity (compound concentration: 2 uM): inactive: -0.727
- TEAD-luciferase reporter activity (compound concentration: 10 uM): inactive: 0.422

From the supplement of paper PMC10735217
